No constants are given. Whether binding was seen depends on the method and setting. In cells and extracts the contact can be indirect. Some results given as binding are weak or reduced against the parent protein; the word gives no strength.
How the values were obtained:
[1] = target: LRP1 (human, endogenous in Hs578T cells) (human (endogenous in Hs578T)) (UniProt Q07954); experiment: cross-linking + co-IP; adherent cells untreated or treated with 50 uM novobiocin for 16 h; cell surface proteins cross-linked with cell-impermeable DTSSP (3 mg/ml, 4 °C, 2 h); lysis in non-denaturing buffer (20 mM Tris-Cl pH 8, 137 mM NaCl, 1% NP40, 2 mM EDTA); IP with rabbit anti-LRP1 or isotype control on Protein A magnetic beads overnight at 4 °C; elution with beta-mercaptoethanol; blots for FN, LRP1 and Hsp90
[2] = target: LRP1 (mouse, endogenous in MEF-1 cells) (mouse (endogenous in MEF-1)) (UniProt Q91ZX7); experiment: as above

Sequences of proteins named here, by UniProt entry; tags and fusion partners are left off. Residues count along the entry.
UniProt Q07954, residues 20-4544: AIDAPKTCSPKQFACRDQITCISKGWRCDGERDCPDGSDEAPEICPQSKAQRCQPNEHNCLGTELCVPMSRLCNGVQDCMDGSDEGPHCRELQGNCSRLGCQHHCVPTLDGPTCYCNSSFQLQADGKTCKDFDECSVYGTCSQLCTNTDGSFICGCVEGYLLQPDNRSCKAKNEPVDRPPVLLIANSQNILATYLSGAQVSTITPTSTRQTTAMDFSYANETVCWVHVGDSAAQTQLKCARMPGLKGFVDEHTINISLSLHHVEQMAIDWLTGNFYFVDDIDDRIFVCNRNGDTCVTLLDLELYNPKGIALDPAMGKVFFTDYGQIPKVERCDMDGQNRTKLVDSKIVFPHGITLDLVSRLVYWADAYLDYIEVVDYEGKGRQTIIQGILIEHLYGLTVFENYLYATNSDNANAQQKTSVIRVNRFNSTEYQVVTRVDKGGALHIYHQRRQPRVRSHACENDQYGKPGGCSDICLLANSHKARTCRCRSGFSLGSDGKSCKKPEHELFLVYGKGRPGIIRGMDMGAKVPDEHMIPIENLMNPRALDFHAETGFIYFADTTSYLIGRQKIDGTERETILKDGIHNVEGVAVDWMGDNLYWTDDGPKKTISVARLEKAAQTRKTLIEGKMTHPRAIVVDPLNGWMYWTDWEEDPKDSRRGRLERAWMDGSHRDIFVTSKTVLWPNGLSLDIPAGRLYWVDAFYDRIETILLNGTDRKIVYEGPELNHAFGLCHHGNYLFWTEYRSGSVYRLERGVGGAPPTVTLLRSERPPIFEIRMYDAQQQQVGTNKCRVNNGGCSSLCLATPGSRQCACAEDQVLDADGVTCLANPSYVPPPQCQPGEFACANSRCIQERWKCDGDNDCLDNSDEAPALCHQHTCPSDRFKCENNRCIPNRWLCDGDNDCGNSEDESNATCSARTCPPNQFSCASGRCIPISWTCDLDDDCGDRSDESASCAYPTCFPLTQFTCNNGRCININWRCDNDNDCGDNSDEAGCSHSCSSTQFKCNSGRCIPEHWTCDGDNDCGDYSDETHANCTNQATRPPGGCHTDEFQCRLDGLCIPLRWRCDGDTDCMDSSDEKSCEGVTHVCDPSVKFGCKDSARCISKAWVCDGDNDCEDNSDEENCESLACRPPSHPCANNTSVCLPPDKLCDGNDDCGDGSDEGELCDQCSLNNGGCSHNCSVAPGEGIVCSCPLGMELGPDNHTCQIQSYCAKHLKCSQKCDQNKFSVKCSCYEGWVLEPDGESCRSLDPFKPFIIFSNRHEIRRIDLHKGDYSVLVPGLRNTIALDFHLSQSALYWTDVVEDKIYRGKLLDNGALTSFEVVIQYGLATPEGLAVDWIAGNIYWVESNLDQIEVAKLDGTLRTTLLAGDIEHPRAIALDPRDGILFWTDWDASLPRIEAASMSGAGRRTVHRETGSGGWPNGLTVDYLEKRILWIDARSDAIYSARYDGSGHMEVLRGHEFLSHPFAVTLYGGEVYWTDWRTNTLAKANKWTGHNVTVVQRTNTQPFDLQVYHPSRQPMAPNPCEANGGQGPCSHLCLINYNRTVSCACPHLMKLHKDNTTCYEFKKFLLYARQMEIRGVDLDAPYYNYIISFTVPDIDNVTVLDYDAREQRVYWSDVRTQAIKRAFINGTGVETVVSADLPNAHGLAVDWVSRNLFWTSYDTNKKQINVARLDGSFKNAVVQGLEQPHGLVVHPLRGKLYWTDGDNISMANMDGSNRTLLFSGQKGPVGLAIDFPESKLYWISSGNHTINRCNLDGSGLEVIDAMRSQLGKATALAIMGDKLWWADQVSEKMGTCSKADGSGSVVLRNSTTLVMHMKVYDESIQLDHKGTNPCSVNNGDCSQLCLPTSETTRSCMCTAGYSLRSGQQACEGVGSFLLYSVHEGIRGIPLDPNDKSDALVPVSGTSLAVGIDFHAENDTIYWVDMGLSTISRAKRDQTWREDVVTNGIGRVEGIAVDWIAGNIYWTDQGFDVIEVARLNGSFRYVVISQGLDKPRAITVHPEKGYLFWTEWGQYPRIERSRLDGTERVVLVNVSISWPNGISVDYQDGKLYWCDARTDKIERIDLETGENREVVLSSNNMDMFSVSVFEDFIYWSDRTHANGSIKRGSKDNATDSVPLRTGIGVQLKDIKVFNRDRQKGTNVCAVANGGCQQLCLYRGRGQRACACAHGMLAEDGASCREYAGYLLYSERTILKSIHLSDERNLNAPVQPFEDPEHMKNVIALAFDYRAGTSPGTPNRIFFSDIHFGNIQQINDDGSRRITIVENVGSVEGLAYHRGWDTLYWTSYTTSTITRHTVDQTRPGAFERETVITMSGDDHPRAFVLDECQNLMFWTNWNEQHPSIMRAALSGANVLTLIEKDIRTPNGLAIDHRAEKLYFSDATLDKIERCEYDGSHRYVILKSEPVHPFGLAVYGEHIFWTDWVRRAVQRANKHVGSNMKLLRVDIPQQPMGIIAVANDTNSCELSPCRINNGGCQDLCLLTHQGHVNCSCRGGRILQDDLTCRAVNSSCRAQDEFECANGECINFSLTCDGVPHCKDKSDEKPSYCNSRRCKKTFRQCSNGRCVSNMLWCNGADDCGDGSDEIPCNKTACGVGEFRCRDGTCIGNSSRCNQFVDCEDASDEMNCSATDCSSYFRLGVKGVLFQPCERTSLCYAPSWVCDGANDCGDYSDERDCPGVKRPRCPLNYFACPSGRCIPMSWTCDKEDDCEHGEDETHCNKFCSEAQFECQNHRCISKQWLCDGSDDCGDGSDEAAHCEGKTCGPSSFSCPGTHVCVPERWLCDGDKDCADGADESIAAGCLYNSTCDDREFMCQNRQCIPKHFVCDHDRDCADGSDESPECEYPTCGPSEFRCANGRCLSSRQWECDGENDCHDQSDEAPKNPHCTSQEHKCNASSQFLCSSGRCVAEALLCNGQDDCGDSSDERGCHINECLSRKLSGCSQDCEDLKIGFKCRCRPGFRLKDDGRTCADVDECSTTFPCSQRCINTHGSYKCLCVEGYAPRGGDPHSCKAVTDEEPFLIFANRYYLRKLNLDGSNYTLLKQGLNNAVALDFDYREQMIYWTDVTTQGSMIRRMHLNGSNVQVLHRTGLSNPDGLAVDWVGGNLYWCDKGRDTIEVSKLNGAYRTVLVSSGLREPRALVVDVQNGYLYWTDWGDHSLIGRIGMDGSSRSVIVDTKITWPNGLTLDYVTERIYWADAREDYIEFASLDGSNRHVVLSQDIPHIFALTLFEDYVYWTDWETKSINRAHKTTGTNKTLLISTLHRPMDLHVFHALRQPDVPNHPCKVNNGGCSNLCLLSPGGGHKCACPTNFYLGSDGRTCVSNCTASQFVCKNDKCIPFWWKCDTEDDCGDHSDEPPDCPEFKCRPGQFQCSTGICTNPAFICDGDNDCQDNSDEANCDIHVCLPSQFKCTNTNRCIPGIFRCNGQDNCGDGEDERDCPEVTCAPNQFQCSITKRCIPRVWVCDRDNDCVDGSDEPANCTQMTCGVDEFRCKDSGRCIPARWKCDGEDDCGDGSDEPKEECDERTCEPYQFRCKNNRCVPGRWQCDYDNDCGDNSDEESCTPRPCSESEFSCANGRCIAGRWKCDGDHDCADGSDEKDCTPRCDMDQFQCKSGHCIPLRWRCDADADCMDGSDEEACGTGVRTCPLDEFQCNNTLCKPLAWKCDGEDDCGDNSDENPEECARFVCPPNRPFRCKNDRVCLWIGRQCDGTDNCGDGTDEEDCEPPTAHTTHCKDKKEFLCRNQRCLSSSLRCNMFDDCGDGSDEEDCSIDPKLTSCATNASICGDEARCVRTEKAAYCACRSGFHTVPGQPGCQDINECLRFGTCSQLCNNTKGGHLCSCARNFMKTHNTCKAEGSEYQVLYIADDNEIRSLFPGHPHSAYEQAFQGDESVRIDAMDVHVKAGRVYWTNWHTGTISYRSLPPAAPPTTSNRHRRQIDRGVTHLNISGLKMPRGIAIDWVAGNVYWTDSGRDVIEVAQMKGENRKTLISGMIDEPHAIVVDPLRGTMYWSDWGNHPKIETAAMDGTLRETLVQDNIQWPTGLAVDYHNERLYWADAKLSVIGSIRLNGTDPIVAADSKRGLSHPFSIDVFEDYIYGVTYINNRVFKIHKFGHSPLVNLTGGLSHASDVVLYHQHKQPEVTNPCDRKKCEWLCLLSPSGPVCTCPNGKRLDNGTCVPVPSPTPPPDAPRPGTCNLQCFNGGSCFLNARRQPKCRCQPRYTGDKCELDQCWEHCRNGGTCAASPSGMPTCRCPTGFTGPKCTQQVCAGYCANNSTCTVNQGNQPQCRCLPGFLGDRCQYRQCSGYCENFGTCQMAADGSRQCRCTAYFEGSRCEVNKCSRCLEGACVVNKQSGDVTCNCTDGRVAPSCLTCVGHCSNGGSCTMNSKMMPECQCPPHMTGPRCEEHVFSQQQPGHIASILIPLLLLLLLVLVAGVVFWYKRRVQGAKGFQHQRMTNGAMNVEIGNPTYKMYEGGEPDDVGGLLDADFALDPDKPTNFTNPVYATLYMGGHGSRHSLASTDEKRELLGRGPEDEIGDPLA

Substance	binding [1]	binding [2]
Fibronectin (human, endogenous in Hs578T cells) (from UniProt P02751 32-2477)	binds	–
Fibronectin (mouse, endogenous in MEF-1 cells) (from UniProt P11276 33-2477)	–	binds
